Assay results as given in PubChem BioAssay AID1347076 (National Center for Advancing Translational Sciences (NCATS), 2019).
The whole screen tested about 400,000 compounds, of which about 13,000 (3.2%) were called active. The shares of active, inactive and inconclusive entries below differ from those in the screen. Calls come from the whole dose curve; as a rule, active = well fitted cell-killing curve with a large enough effect; inconclusive = small, poorly fitted or top-dose-only effect, or effect the other way; inactive = flat fitted curve, though single readings scatter. Potencies of inconclusive entries are doubtful fits and often do not repeat.

assay: qHTS assay for MDR1-selective chemotherapeutics: Primary screen using the drug-selected MDR subline cells KB-V1; conditions: KB-V1 MDR cells viability, CellTiter-Glo, 72 h; activity change, negative = cytotoxicity: at 46.1 µM (top of the series); note: nearly all actives have a fitted effect of over 60% in size
Outline: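 Cytotoxicity toward P-gp-expressing KB-V1 cells was determined as loss of CellTiter-Glo luminescence after 72 h at 37 degrees C. Compounds were tested in quantitative HTS format across a concentration range, with curves fitted to normalized data.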
% is set by controls: 0 for no effect and ±100 for the full control effect; potency is the fitted concentration of half-maximal effect.

SMILES | Potency | activity change, negative = cytotoxicity
O=[N+]([O-])c1ccc(S(=O)(=O)NCC(c2ccco2)N2CCc3ccccc3C2)cc1 (stereo not drawn) | inconclusive: 20.6 µM [cytotoxic, partial curve, poor fit] | 
CCN(CC)CC(=O)N(CC(=O)Nc1c(C)cc(C)cc1C)C1CCCCC1 | inconclusive: 11.6 µM [cytotoxic, partial curve, poor fit] | 
CCc1cc(C(=O)Cc2nc3ccccc3s2)c(O)cc1OCC(=O)O | inactive | 
Cc1ccc(C2C(C#N)=C(N)Oc3cc4c(cc32)OCO4)cc1 (stereo not drawn) | inconclusive: 29.1 µM [cytotoxic, single point] | 
O=C(NCCCN1CCOCC1)NC12CC3CC(CC(C3)C1)C2 | inconclusive: 9.2 µM [rising, partial curve, poor fit] | 
CCOc1ccccc1NC(=O)CCNC(=O)c1ccc(Cl)cc1 | inconclusive: 18.4 µM [cytotoxic, single point] | 
COc1ccc(Cn2c(/C=C/c3ccccc3)nc3ccccc32)cc1 | active: 13 µM | 
COc1ccc(-c2oc(=O)c3cc(OC)c(OC)cc3c2-c2cc(F)cc(OC)c2)cc1 | inactive | 
CCCN(CC(=O)Nc1cc(Cl)ccc1Cl)C(=O)CN1C(=O)C2CCCCC2C1=O (stereo not drawn) | inconclusive: 2.06 µM [cytotoxic, full curve] | 
CC(C)c1cc(C(=O)N/N=C/c2c[nH]c3ccccc23)n[nH]1 | inactive | 
COc1ccccc1C(=O)Nc1ccc(Cc2ccncc2)cc1 | active: 9.2 µM | 
Cc1ccc(-c2nc3ncccc3o2)cc1NC(=O)c1ccc([N+](=O)[O-])o1 | active: 18.4 µM | 
Cn1cc(CN2CCC(C(=O)NC(c3ccc(-c4ccccc4)cc3)c3cnccn3)CC2)c2ccccc21 (stereo not drawn) | inactive | 
CCc1ccccc1NC(=O)c1cc2sccc2n1C | inconclusive: 20.6 µM [cytotoxic, partial curve, poor fit] | 
O=C(CN1C(=O)c2ccccc2S1(=O)=O)c1ccc(F)cc1 | inactive | 
COc1ccc(NC(=O)/C(C#N)=C\c2cc(C)n(-c3ccc4c(c3)OCO4)c2C)cc1 | active: 2.06 µM | 
CCCCCCC1CCC(C(=O)N2CCOCC2)CC1 (stereo not drawn) | inactive | 
Cc1cc2nc(-c3ccc(C#N)cc3)c(Cc3ccsc3)n2c(C)c1Br | inconclusive: 14.6 µM [cytotoxic, single point] | 
O=[N+]([O-])c1cc2c(c([N+](=O)[O-])c1)Nc1ccccc1O2 | active: 13 µM | 
COc1ccc(C(c2nnnn2C2CCCC2)N2CCC(C)CC2)cc1 (stereo not drawn) | inconclusive: 25.9 µM [cytotoxic, single point] | 
Cc1[nH]n(-c2ccc([N+](=O)[O-])cc2)c(=O)c1/C=N/N1CCOCC1 | inconclusive: 16.4 µM [cytotoxic, partial curve, poor fit] | 
CCCN(CC(=O)Nc1ccccc1C)C(=O)c1ccc(-c2ccc(C(C)=O)cc2)o1 | inconclusive: 13 µM [cytotoxic, partial curve, poor fit] | 
CCOC(=O)c1c(-c2ccccc2)oc2ccc(OC(C)C(=O)O)cc12 (stereo not drawn) | inactive | 
COC(=O)c1ccc2c(c1)C(C)(C)C(/C=C/c1ccc(O)cc1)=[N+]2C | active: 6.31 µM | 
CC(=O)c1ccc(N=c2scc(C)n2C(C)C)cc1 | inactive | 

SMILES | Potency | activity change, negative = cytotoxicity
Oc1ccc(C[C@@H]2CNC(=S)N2CCCCC2CCCCC2)cc1 | inactive | 
COC(=O)CNC(=O)N1CCN(S(=O)(=O)c2ccc3c(ccn3C)c2)CC1 | inactive | 
O=C(COc1ccc(-c2ccccc2)cc1)N1CCN(C(=O)c2cccs2)CC1 | inconclusive: 14.6 µM [cytotoxic, partial curve, poor fit] | 
CCOc1ccc(-c2nnc(SCC(=O)c3ccccc3)n2-c2ccccc2)cc1 | inactive | 
CCOc1ccc2nc(N3CCCC(C(=O)NCCCN4CCCCC4)C3)sc2c1 (stereo not drawn) | inconclusive: 0.0082 µM [rising, full curve, poor fit] | 
O=c1cc(-c2ccccc2)nc2cc(-c3ccc(Br)cc3)[nH]n12 | inactive | 
Cn1c(SCC(=O)NCC2CCCO2)nc2c([nH]c3ccccc32)c1=O (stereo not drawn) | inconclusive: 18.4 µM [cytotoxic, single point] | 
CCOC(=O)c1c(C)[nH]c(C(=O)COC(=O)CCC2CCCC2)c1C | inconclusive: 5.8 µM [cytotoxic, full curve] | 
CC(=NO)c1ccc2c(c1)Cc1cc([N+](=O)[O-])ccc1-2 | active: 7.31 µM | 
O=C(Nc1cc(Cl)ccc1N1CCOCC1)c1cc2ccccc2o1 | inconclusive: 5.17 µM [cytotoxic, partial curve] | 
COc1ccc(CNC(=O)COC(=O)c2c[nH]c(=O)[nH]c2=O)cc1OC | inconclusive: 18.4 µM [rising, single point] | 
Cc1ccc(NC(=O)c2ncoc2-c2ccco2)cc1Cl | inconclusive: 0.58 µM [cytotoxic, full curve, poor fit] | 
Cc1c(Nc2nc(C(F)(F)F)nc3ccccc23)c(=O)n(-c2ccccc2)n1C | inconclusive: 6.51 µM [cytotoxic, full curve, poor fit] | 
COc1ccc(Cl)cc1NC(=O)CN(C)C(=O)c1sc2ccccc2c1Cl | inconclusive: 5.17 µM [cytotoxic, full curve, poor fit] | 
CC1(C)Cc2c(sc(NC(=O)c3ccco3)c2C#N)C(C)(C)N1 | active: 18.4 µM | 
CCn1cc(C(=O)Nc2ccc(OC)c(OC)c2)c2cc(OC)c(OC)cc2c1=O | inconclusive: 0.0326 µM [rising, full curve] | 
Cc1cnc(C(=O)OCC(=O)c2ccc(C)s2)cn1 | inactive | 
O=S(=O)(Nc1cccnc1)c1cccnc1 | inactive | 
CCN(CCCNC(=O)CN(C)S(=O)(=O)c1cccc2nsnc12)c1ccccc1 | inconclusive: 7.31 µM [cytotoxic, partial curve] | 
COc1ccc(N2CCN(C(=O)[C@@H]3CCCN3C3=NS(=O)(=O)c4ccccc43)CC2)cc1 | inactive | 
COc1ccc(NC(=O)c2oc3ccccc3c2NC(=O)C2CC2)cc1OC |  | inconclusive: -26.5%
CCCC[C@@H]1C[C@H]1[C@@H](NC(=O)c1cccs1)c1ccc(C(F)(F)F)cc1 | inactive | 
CCOC(=O)C1CCN(C(=O)c2c(-c3ccccc3)noc2C)CC1 | inconclusive: 5.8 µM [cytotoxic, partial curve] | 
CN(C)c1ccc(C=Nc2ccccc2)cc1 | inactive | 
COc1ccc(CC(=O)Nc2ccccc2N2CCCCC2)cc1OC | inconclusive: 10.3 µM [cytotoxic, partial curve] | 

As a short view, 3 of the compounds above.
SMILES | Potency | activity change, negative = cytotoxicity
Cc1[nH]n(-c2ccc([N+](=O)[O-])cc2)c(=O)c1/C=N/N1CCOCC1 | inconclusive: 16.4 µM [cytotoxic, partial curve, poor fit] | 
CCCN(CC(=O)Nc1ccccc1C)C(=O)c1ccc(-c2ccc(C(C)=O)cc2)o1 | inconclusive: 13 µM [cytotoxic, partial curve, poor fit] | 
CCOC(=O)c1c(-c2ccccc2)oc2ccc(OC(C)C(=O)O)cc12 (stereo not drawn) | inactive | 

The results go on:

SMILES | Potency | activity change, negative = cytotoxicity
CCOC(=O)[C@]12CCCC=C1N(CCC1=CCCCC1)C(=O)[C@H](CC(=O)NCc1cccc3ccccc13)C2 | inconclusive: 20.6 µM [cytotoxic, single point] | 
CC1=C(C(=O)Nc2cc(C(=O)N3CCN(c4ccc(Cl)cc4)CC3)ccc2C)SCCO1 | inconclusive: 5.8 µM [cytotoxic, partial curve, poor fit] | 
O=C(O)CCc1nnc2n(Cc3ccc(F)cc3)c(=O)c3ccccc3n12 |  | inconclusive: 49.2%
S=C(Nc1ccc2nsnc2c1)N1CCCCC1 | inconclusive: 16.4 µM [rising, single point] | 
Oc1ccc(C(=S)N2CCCCCC2)cc1 | inactive | 
COc1cccc(C(O)c2ncc(-c3ccccc3OC)[nH]2)c1 (stereo not drawn) | inconclusive: 16.4 µM [cytotoxic, single point] | 
COc1ccc(Nc2nc(N3CCCCC3)c3ccccc3n2)cc1 | active: 20.6 µM | 
CCC(=O)OCCn1c(=O)c2ccccc2c2ccccc2c1=O | inconclusive: 23.1 µM [rising, single point] | 
C=CCSc1nnc(NC(=O)COc2ccccc2)s1 | inactive | 
CCN(C(=O)C1CCCN(c2ncnc3c2nc2n3CCCCC2)C1)c1cccc(C)c1 (stereo not drawn) |  | inconclusive: -28%
Cc1ccc2oc(C(=O)N3CCC(O)(c4cccc(C(F)(F)F)c4)CC3)c(C)c2c1 | inconclusive: 16.4 µM [rising, single point] | 
COC1=C/C(=C/c2c(N)n3nc(-c4ccc(C)cc4)sc3nc2=O)C=CC1=O | inactive | 
COc1ccc(-c2cc(C(=O)NCc3ccco3)c3ccccc3n2)cc1OC | inconclusive: 23.1 µM [cytotoxic, single point] | 
NC1=NC[C@H](Cc2ccc(O)cc2)N1CC1CCCCC1 | inconclusive: 29.1 µM [rising, single point] | 
c1nc2sc3c(c2c2nnnn12)CCC3 | inactive | 
CC(=O)c1cc2c(cc1NS(=O)(=O)c1ccc3c(c1)OCCO3)OCO2 | inconclusive: 23.1 µM [cytotoxic, single point] | 
O=[N+]([O-])c1ccc(Oc2cccc(Br)c2)c2ccncc12 | inconclusive: 18.4 µM [cytotoxic, single point] | 
COc1ccc(NC(=O)CCC(=O)c2ccc(Cl)cc2)cn1 | inconclusive: 20.6 µM [rising, single point] | 
CCN(CC)S(=O)(=O)c1ccc2oc(C(=O)Nc3cc(C)ccc3OC)c(C)c2c1 | inconclusive: 23.1 µM [rising, partial curve, poor fit] | 
CCOCCN(C(=O)c1ccccc1Cl)c1cccc(C)c1C | inconclusive: 29.1 µM [cytotoxic, single point] | 
O=C(NC1CCCCC1)C(c1cccs1)N(CC1CCCO1)C(=O)c1csnn1 (stereo not drawn) | inconclusive: 10.3 µM [cytotoxic, partial curve, poor fit] | 
CCc1ccccc1N1CC23C=CC(O2)C(C(=O)OC)C3C1=O (stereo not drawn) | inactive | 
Cc1ccc2nc(-c3ccccn3)cc(C(=O)N3CCN(c4ncccn4)CC3)c2c1 | inconclusive: 20.6 µM [cytotoxic, partial curve] | 
